Data as given in patent publication US20240239814A1, “Complexes Of CU(I) As Antitumor Agents” (priority 2021, published 2024).
Some results were stated once for a whole list of compounds, not compound by compound.

Assays:
[1] = system: human ovarian cancer cells 2008; assay: MTT cytotoxicity assay, 72 h, 2008; conditions: 2008 cells
Source text: Human breast (MCF-7), lung (H157), pancreatic (PSN-1) and colon (HCT-15 and LoVo) carcinoma cell lines were obtained from the American Type Culture Collection (ATCC, Rockville, MD). A431 are human cervical carcinoma cells kindly provided by Prof. F. Zunino (Molecular Pharmacology Unit, Experimental Oncology and Molecular Medicine, Istituto Nazionale dei Tumori, Milan, Italy). […] G. Marverti (Dept. of Biomedical Science, University of Modena, Italy).
Briefly, depending upon the growth characteristics of the cell line, 3-8×10^3 cells well^−1, were seeded in 96-well microplates in growth medium (100 μL) and then incubated at 37° C. in a 5% carbon dioxide atmosphere. After 24 h, the medium was removed and replaced with a fresh one containing the compound to be studied, at the appropriate concentration, dissolved in 0.9% sodium chloride solution just before use. Triplicate cultures were established for each treatment. […] After an overnight incubation, the inhibition of cell growth induced by the tested complexes was determined by measuring the absorbance of each well at 570 nm using a Bio-Rad 680 microplate reader. Mean absorbance for each drug dose was expressed as percentage of the control and plotted vs. drug concentration. Dose-response curves were fitted and IC50 values were calculated with four parameter logistic model (4PL).
(§1) The cytotoxicity was evaluated by means of the MTT test for 72 h treatment with increasing concentrations of the tested compounds.
(§2) Cytotoxic activity was examined against a panel of human tumor cell lines. […] The growth inhibitory effect was evaluated by means of MTT test. […] SD=standard deviation, -=not detected.
as §1, §2

[2] = LLC-bearing mice, daily i.p. treatment, FIG. 1
Protocol: The mice were purchased from Charles River, Italy, housed in steel cages under controlled environmental conditions (constant temperature, humidity, and 12 h dark/light cycle), and alimented with commercial standard feed and tap water ad libitum. Animals were observed daily, and body weight and food intake recorded. The Lewis lung carcinoma (LLC) cell line was purchased from ECACC, UK. The LLC cell line was maintained in D-MEM (Euroclone) supplemented with 10% heat-inactivated FBS (Euroclone), 10 mM L-glutamine, 100 U mL^−1 penicillin, and 100 μg mL^−1 streptomycin in a 5% CO2 air incubator at 37° C. […] At day 15, animals were sacrificed, the legs were amputated at the proximal end of the femur, and the inhibition of tumor growth was determined according to the difference in weight of the tumor-bearing leg and the healthy leg of the animals expressed as % referred to the control animals. Body weight was measured every two days and was taken as a parameter for systemic toxicity. All the values are the means±S.D. of not less than three measurements. Multiple comparisons were made by Tukey-Kramer test (** p<0.01; * p or °p<0.05).
For the assessment of the adverse side effects, changes in body weights of tumor-bearing mice were monitored daily (FIG. 1).

| Compound | cytotoxicity against human ovarian cancer cells compared with cisplatin and oxaliplatin [1] | other results |
| --- | --- | --- |
| F[B-](F)(F)F.Oc1ccccc1P(c1ccccc1)c1ccccc1.Oc1ccccc1P(c1ccccc1)c1ccccc1.[Cu+] [Compound 12, Bis[diphenyl(2-hydroxyphenyl)phosphine] copper(I)tetrafluoroborate] | much more effective than both cisplatin and oxaliplatin |  |
| COCOc1ccccc1P(c1ccccc1)c1ccccc1.COCOc1ccccc1P(c1ccccc1)c1ccccc1.F[B-](F)(F)F.[Cu+] [Compound 13, Bis[diphenyl(2-(methoxymethoxy)phenyl)phosphine] copper(I)tetrafluoroborate] | much more effective than both cisplatin and oxaliplatin |  |
| COc1ccccc1P(c1ccccc1)c1ccccc1.COc1ccccc1P(c1ccccc1)c1ccccc1.F[B-](F)(F)F.[Cu+] [Compound 11, Bis[diphenyl(2-methoxyphenyl)phosphine] copper(I)tetrafluoroborate] |  | cytotoxicity against human ovarian cancer cells compared with cisplatin and oxaliplatin ([1]; listed as compound 11): much more effective than both cisplatin and oxaliplatin |
| F[B-](F)(F)F.O=Cc1ccccc1P(c1ccccc1)c1ccccc1.O=Cc1ccccc1P(c1ccccc1)c1ccccc1.[Cu+] [Compound 9, Bis[2-(diphenylphosphanyl)benzaldehyde]copper(I) tetrafluoroborate] |  | body weight loss [2]: < 20% |
